Test results reported in patent publication US11214593B2 (SUIGENERIS FARMACOSMETICS, S.L., priority 2017, dated 2022).

Test: general procedure: Fmoc solid-phase peptide synthesis; Rink-amide resin; DIPCDI/HOBt
Details: whole synthesis

Going from “CH3-C(O)-CFEVSKY-NH2 (N-acetyl; C-terminal amide; MOD_RES (1)..(1) …ON; MOD_RES (7)..(7) AMIDATION)” to CH3-C(O)-FEISKY-NH2, the “purity (crude or final not stated)” value falls from 97.45% to 90.54%.

Compared with “CFEISKY-NH2 (C-terminal amide; MOD_RES (7)..(7) AMIDATION)”, CH3-C(O)-VFSTAL-NH2 is lower in “purity (crude or final not stated)” value: 97.54% for the first, 94.14% for the second.

Compared with CH3-C(O)-CVFSTAL-NH2, “PEPTIDE1{[ac].C.F.E.I.S.K.Y.[am]}$$$$V2.0” is lower in “purity (crude or final not stated)” value: 99.12% for the first, 97.00% for the second.

Some peptides are written in HELM: one residue between dots, names in brackets for other building blocks, links after the first $.
